Measurements from the supplement of paper PMC3682954.
“And” between values parts separate entries of the source, which are not always exact repeats. Equal entries are not always repeated. Structures can show the parent of a compound that is named as a salt. ± gives the standard deviation of the averaged measurements. The list shows a part of the results. Single values are uncertain, as repeats are few or missing.

System: RAW 264.7
Test: cell viability (MTT) relative to vehicle control; higher = more viable cells
Details: stimulus: HMGB1 5 ug/ml, 18 h
[1] = compound concentration: 1 ug/ml

| SMILES | cell viability (compound concentration: 3 uM) | cell viability [1] |
| --- | --- | --- |
| CC(=O)O[C@]1(C(C)=O)CC[C@H]2[C@@H]3C=C(Cl)C4=CC(=O)CC[C@]4(C)[C@H]3CC[C@@]21C [Chlormadinone Acetate] | 99% |  |
| CC(=O)O[C@]1(C(C)=O)CC[C@H]2[C@@H]3C=C(Cl)C4=CC(=O)CC[C@]4(C)[C@H]3CC[C@@]21C [Chlormadinone acetate] | 85.2% | 106% |
| CC(=O)O[C@]1(C(C)=O)CC[C@H]2[C@@H]3C=C(Cl)C4=CC(=O)CC[C@]4(C)[C@H]3CC[C@@]21C | 107% |  |
| CCN(CC)C(C)CN1c2ccccc2Sc2ccccc21 (centres undefined) | 108% |  |
| CCN(CC)C(C)CN1c2ccccc2Sc2ccccc21 (centres undefined) [Ethopropazine hydrochloride] | 112 ± 23% |  |
| CCCNC(=O)NS(=O)(=O)c1ccc(Cl)cc1 [Chlorpropamide] | 90.7 ± 7.4% |  |
| CCCNC(=O)NS(=O)(=O)c1ccc(Cl)cc1 | 110% |  |
| O=C1[C@H]2CCCC[C@H]2C(=O)N1CCCCN1CCN(c2nsc3ccccc23)CC1 | 96.7% |  |
| CN(C)S(=O)(=O)c1ccc2c(c1)/C(=C/c1cc3c([nH]1)CCCC3)C(=O)N2 | 97.4% |  |
| CN1CCN(C2Cc3ccccc3Sc3ccc(Cl)cc32)CC1 (racemic) [(±)-Octoclothepin maleate] | 95.8% |  |
| Clc1cccc(Cl)c1NC1=NCCN1 | 102% and 95.2% |  |
| Clc1cccc(Cl)c1NC1=NCCN1 [Clonidine HCl] | 107% |  |
| Clc1cccc(Cl)c1NC1=NCCN1 [Clonidine hydrochloride] | 101 ± 8.4% |  |
| CO[C@H]1/C=C/O[C@@]2(C)Oc3c(C)c(O)c4c(O)c(c5c(nc6cc(C)ccn65)c4c3C2=O)NC(=O)/C(C)=C\C=C\[C@H](C)[C@H](O)[C@@H](C)[C@@H](O)[C@@H](C)[C@H](OC(C)=O)[C@@H]1C | 113 ± 16% |  |
| CO[C@H]1/C=C/O[C@@]2(C)Oc3c(C)c(O)c4c(O)c(c5c(nc6cc(C)ccn65)c4c3C2=O)NC(=O)/C(C)=C\C=C\[C@H](C)[C@H](O)[C@@H](C)[C@@H](O)[C@@H](C)[C@H](OC(C)=O)[C@@H]1C [Rifaximin] | 99.3% |  |
| Cc1ncc(CO)c(C=O)c1O [Pyridoxal hydrochloride] |  | 95.5% |
| N=C(N)NCCCCNC(=N)N [Arcaine sulfate] | 105% |  |
| Nc1ccn([C@H]2C[C@H](O)[C@@H](CO)O2)c(=O)n1 [2'-Deoxycytidine monohydrate] |  | 103% |
| Nc1ccn([C@H]2C[C@H](O)[C@@H](CO)O2)c(=O)n1 [2'-Deoxycytidine hydrochloride] |  | 98.1% |
| Nc1nc2c(ncn2COC(CO)CO)c(=O)[nH]1 [Ganciclovir] | 105 ± 6.2% |  |
| Cc1c(N=CC(O)CN2CC3CC(C2)c2cccc(=O)n2C3)c(=O)n(-c2ccccc2)n1C (centres undefined) |  | 97.9% |
| CNCCc1ccccn1 | 98.3% |  |

In another format: entries from further up
SMILES,cell viability (compound concentration: 3 uM),cell viability [1]
CN(C)S(=O)(=O)c1ccc2c(c1)/C(=C/c1cc3c([nH]1)CCCC3)C(=O)N2,97.4%,
CN1CCN(C2Cc3ccccc3Sc3ccc(Cl)cc32)CC1 (racemic) [(±)-Octoclothepin maleate],95.8%,
Clc1cccc(Cl)c1NC1=NCCN1,102% and 95.2%,

Further results follow:

| SMILES | cell viability (compound concentration: 3 uM) | cell viability [1] |
| --- | --- | --- |
| CNCCc1ccccn1 [Betahistine mesylate] | 92.3% |  |
| CC=CC(=O)N(CC)c1ccccc1C [Crotamiton] | 123 ± 15% |  |
| CC=CC(=O)N(CC)c1ccccc1C | 107 ± 12% |  |
| CC1CC2C3CCC4=CC(=O)C=CC4(C)C3(F)C(O)CC2(C)C1C(=O)CO (centres undefined) | 126% |  |
| CN(C)C(=N)NC(=N)N [Metformin] | 107% |  |
| CN(C)C(=N)NC(=N)N [Metformin hydrochloride] | 99.8% |  |
| CN(C)C(=N)NC(=N)N | 112% |  |
| NCCCCCC(=O)O [Aminocaproic acid] | 101% |  |
| NCCCCCC(=O)O | 105% |  |
| CC(=O)[C@@]1(O)CC[C@H]2[C@@H]3CCC4=CC(=O)CC[C@]4(C)[C@H]3CC[C@@]21C | 113% |  |
| NC1(C(=O)O)CC1 [1-Aminocyclopropanecarboxylic acid hydrochloride] | 102% |  |
| CCN(CC)C(=O)c1ccc(O)c(OC)c1 [Ethamivan] | 97.3% |  |
| CCN(CC)C(=O)c1ccc(O)c(OC)c1 | 95.5% |  |
| CCN(CC)C(=O)c1ccc(O)c(OC)c1 [Vanillic acid diethylamide] | 96.5% |  |
| O=C(c1ccc(F)cc1)C1CCN(CCn2c(=O)[nH]c3ccccc3c2=O)CC1 [Ketanserin] | 99.8% |  |
| O=C(c1ccc(F)cc1)C1CCN(CCn2c(=O)[nH]c3ccccc3c2=O)CC1 | 114% |  |
| O=C(c1ccc(F)cc1)C1CCN(CCn2c(=O)[nH]c3ccccc3c2=O)CC1 [Ketanserin tartrate] | 123% |  |
| O=C(c1ccc(F)cc1)C1CCN(CCn2c(=O)[nH]c3ccccc3c2=O)CC1 [Ketanserin tartrate hydrate] | 107% |  |
| C[C@H]1[C@H](C)CC[C@]2(C(=O)O)CC[C@]3(C)C(=CC[C@@H]4[C@@]5(C)CC[C@H](O)C(C)(C)[C@@H]5CC[C@]43C)[C@H]12 [Ursolic acid] |  | 93.8% |
| Cc1cc2nc3c(=O)[nH]c(=O)nc-3n(C[C@H](O)[C@H](O)[C@H](O)CO)c2cc1C | 105% |  |
| O=C(CCCCCN1CCN(c2ccccc2-c2ccccc2)CC1)NC1CCCc2ccccc21 (centres undefined) [LP 12 hydrochloride hydrate] | 93% |  |
